Test results as given in PubChem BioAssay AID504834 (National Center for Advancing Translational Sciences (NCATS), 2011).
The campaign covered roughly 320,000 compounds. About 22,000 (6.9%) were called active. Inconclusive means that the source gave no clear call. Such entries were picked first, then a sample of the others. Calls come from the whole dose curve; as a rule, active = well fitted inhibition curve with a large enough effect; inconclusive = small, poorly fitted or top-dose-only effect, or another doubt; inactive = no such curve, though single readings can be large or run the other way. Potencies beside an inconclusive call are fits to weak or partial responses and may not hold up.

assay: Primary qHTS for delayed death inhibitors of the malarial parasite plastid, 96 hour incubation; conditions: P. falciparum luciferase reporter growth; series mostly up to 28.7 µM; activity change, negative = inhibition: at the top concentration
Outline: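 Luminescence readout: decreased luciferase signal marks inhibited growth of reporter-expressing P. falciparum in infected red cells (2% hematocrit, 0.05% parasitemia final), exposed to compound two generations (96 h, 37 C, 5% CO2).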
% is set by controls: 0 for no effect and ±100 for the full control effect; potency is the fitted concentration of half-maximal effect.

SMILES | Potency | activity change, negative = inhibition
C=CCN1C(=O)C2(OCCCO2)c2cc(Cl)ccc21 | inconclusive: 10.4 µM [inhibitor, partial curve] | –
Cc1cccc(C(=O)OCC(=O)N2CCCCCC2)c1 | – | inactive: 37.5%
O=C(COC(=O)c1ncc(Cl)c(Cl)c1Cl)NC(=O)c1ccccc1 | – | inactive: 30.8%
CC(C(=O)NCCSCc1cccc(Cl)c1)N(c1ccccc1)S(C)(=O)=O (stereo not drawn) | inconclusive: 13.1 µM [inhibitor, single point] | –
O=C(CSc1ccc2nnc(-c3cccnc3)n2n1)Nc1ccc(F)cc1 | inconclusive: 14.7 µM [inhibitor, single point] | –
CC(=O)c1ccc(NC(=O)C(C)NCc2ccccc2Cl)cc1 (stereo not drawn) | inconclusive: 10.4 µM [inhibitor, partial curve, poor fit] | –
CCOC(=O)c1ccc(NC(=O)C2CCN(S(=O)(=O)c3c(C)nn(C)c3C)CC2)cc1 | inconclusive: 14.7 µM [inhibitor, single point] | –
COc1cc(C)ccc1OCCOc1cc(C)ccc1Cl | inconclusive: 10.4 µM [inhibitor, partial curve, poor fit] | –
OCCC1CN(Cc2cccn2-c2ncccn2)CCN1Cc1ccc(F)cc1 (stereo not drawn) | inconclusive: 18.5 µM [inhibitor, single point] | –
COc1ccc(/C=N/Nc2ccccc2C(=O)O)cc1 | inconclusive: 0.928 µM [inhibitor, full curve, poor fit] | –
CCCCc1c(O)nc(SCC(=O)NCC2CCCO2)[nH]c1=O (stereo not drawn) | – | inactive: -6.21%
CCOc1ccc(NC(=O)CCC(=O)Nc2cc(OC)c(NC(=O)c3ccco3)cc2OC)cc1 | inconclusive: 6.57 µM [inhibitor, partial curve] | –
CC(C)(C)C(=O)OCC(=O)C1CCC2C3CCC4=CC(=O)CCC4(C)C3CCC12C (stereo not drawn) | inconclusive: 3.79 µM [inhibitor, full curve, poor fit] | –
CCCCOC(=O)c1ccc(NC(=O)CN2C(=O)NC3(CCCCCC3)C2=O)cc1 | inconclusive: 18.5 µM [inhibitor, single point] | –
O=C(/C=C/c1cccc(Cl)c1)Nc1ncccn1 | inconclusive: 7.38 µM [inhibitor, partial curve, poor fit] | –
CC(=O)NCCN=C(C)c1sc2ccccc2c1O | – | inactive: -17.9%
O=C(CN1C(=O)C2CC=CCC2C1=O)NCC(=O)Nc1ccc(F)c(F)c1 (stereo not drawn) | – | inactive: 20%
COc1cc(C(=O)NC(C)CCn2cccn2)ccc1OC1CCN(C(C)=O)CC1 (stereo not drawn) | inconclusive: 1.65 µM [inhibitor, partial curve] | –
CCOc1ccccc1-n1c(SCC(=O)N2CCCC2)nnc1-c1ccc(O)cc1 | inconclusive: 18.5 µM [inhibitor, single point] | –
COCCn1c(C)cc(C(=O)CSc2nc3ccccc3c(=O)n2C(C)COC)c1C (stereo not drawn) | inconclusive: 18.5 µM [inhibitor, single point] | –
COc1ccc(CCNC(=O)c2ccc(-c3ccc([N+](=O)[O-])cc3)o2)cc1OC | inconclusive: 18.5 µM [inhibitor, single point] | –
C=CCc1cccc(CNc2ccc(Br)cc2)c1O | inconclusive: 18.5 µM [inhibitor, single point] | –
Cc1ccc(NC(=O)CCNC(=O)c2ccccc2Cl)cc1S(=O)(=O)N1CCCCCC1 | inconclusive: 10.4 µM [inhibitor, single point] | –

SMILES | Potency | activity change, negative = inhibition
CCOc1ccc(CCNC(=O)c2cccc(S(=O)(=O)N3CCCC3)c2)cc1OCC | inconclusive: 11.7 µM [inhibitor, partial curve] | –
COc1ccc(NC(=O)CCNS(=O)(=O)c2ccc3c(c2)c(=O)n(C)c(=O)n3C)cc1OC | – | inactive: 65%
CN(Cc1ccccc1F)C(=O)CN1CCN(S(=O)(=O)c2ccc3c(c2)OCCCO3)CC1 | inconclusive: 18.5 µM [inhibitor, single point] | –
O=S1(=O)CCN2C=C(Cl)C=C(Cl)C2=N1 | – | inactive: 149%
CC1(C)CC(=O)C(N=Nc2ccc(S(=O)(=O)N3CCOCC3)cc2)=C(O)C1 | – | inactive: 2.1%
O=C(N/C(=C\c1ccc(O)cc1)C(=O)N1CCCCC1)c1ccccc1 | – | inactive: 0%
O=C(CCNC(=O)Cn1cnc2ccccc2c1=O)NCC1COc2ccccc2O1 (stereo not drawn) | inconclusive: 2.33 µM [inhibitor, full curve] | –
O=[N+]([O-])c1ccc(NCCOc2ccccc2Cl)nc1 | inconclusive: 18.5 µM [inhibitor, single point] | –
CCN1CCSc2ccc(C(=O)NCc3ccc(OC(C)C)cc3)cc21 | inconclusive: 14.7 µM [inhibitor, single point] | –
Fc1ccccc1-c1nnc2ccc3ccccc3n12 | inconclusive: 18.5 µM [inhibitor, single point] | –
CC(=O)c1cccc(Nc2nc(-c3cccnc3)cs2)c1 | inconclusive: 1.85 µM [inhibitor, partial curve] | –
CCOC(=O)CSc1nnc(Cc2cc(=O)[nH]c(=O)[nH]2)n1-c1ccc(Cl)cc1 | – | inactive: -15.8%
COc1cccc(NC(=S)N/N=C2\CC3CCC2(C)C3(C)C)c1 (stereo not drawn) | inconclusive: 2.62 µM [inhibitor, single point] | –
CC(C)(C)C(=O)NC(=S)Nc1ccc(F)cc1 | inconclusive: 18.5 µM [inhibitor, single point] | –
CC1=C(C(=O)Nc2ccc(Br)cc2)C(c2ccco2)NC(=O)N1 (stereo not drawn) | inconclusive: 10.4 µM [inhibitor, single point] | –
COc1ccc(C(=O)N(C)Cc2ccccc2F)cc1S(=O)(=O)N1CCCC1 | inconclusive: 18.5 µM [inhibitor, partial curve, poor fit] | –
COc1ccc(C2=NN(C(=O)CSc3nc4ccccc4s3)C(c3ccc(OC)cc3)C2)cc1 (stereo not drawn) | inconclusive: 11.7 µM [inhibitor, single point] | –
COc1ccc(S(=O)(=O)NCc2cccnc2)cc1C(=O)Nc1ccccc1 | active: 10.4 µM | –
COc1ccc(C(=O)N/N=C2\CCc3ccccc32)cc1OC | – | inactive: -12.5%
CCOC(=O)C1CCN(c2c(NCc3ccc(C(=O)NC4CCCC4)cc3)c(=O)c2=O)CC1 | inconclusive: 11.7 µM [inhibitor, single point] | –
Cc1[nH]n(S(=O)(=O)Cc2ccccc2)c(=O)c1N=Nc1ccccc1Cl | inconclusive: 18.5 µM [inhibitor, single point] | –
COc1ccc(/C=C/C(=O)Nc2cc(C(F)(F)F)ccc2Cl)cc1 | inconclusive: 5.22 µM [inhibitor, partial curve, poor fit] | –
O=C(CCc1nc(-c2cccs2)no1)Nc1cnc2ccccc2c1 | inconclusive: 18.5 µM [inhibitor, single point] | –

SMILES | Potency | activity change, negative = inhibition
CC(C)c1ccc(NC2CCCN(C(=O)CCN3Cc4ccccc4C3=O)C2)cc1 (stereo not drawn) | active: 1.85 µM | –
Clc1cccc(Cl)c1Cn1c(-c2cccnc2Cl)nc2ccccc21 | inconclusive: 11.7 µM [inhibitor, single point] | –
CN(c1ccc(-c2csc(NC(=O)C3CC(=O)N(Cc4ccco4)C3)n2)cc1)S(C)(=O)=O (stereo not drawn) | inconclusive: 13.1 µM [inhibitor, single point] | –
Cn1cnc2c1c(=O)[nH]c(=O)n2Cc1ccccc1 | inconclusive: 10.4 µM [inhibitor, single point] | –
C#CCOCCOCCOCCNc1nc(N2CCN(C(=O)Cn3cc(CCCCN)nn3)CC2)nc(N2CCN(C(=O)[C@H](CCCCN)n3cc(CCCC)nn3)CC2)n1 | inconclusive: 4.15 µM [inhibitor, single point] | –
COc1ccc(CCNC(=O)C2CCN(S(=O)(=O)c3cccc4nonc34)CC2)cc1OC | active: 8.28 µM | –
CCc1nc2ccc(C(=O)NCCc3ccccc3OC)cc2nc1CC | inconclusive: 11.7 µM [inhibitor, single point] | –
Cc1cc(NC(=O)c2ccc(F)cc2F)n(-c2nc3ccccc3[nH]2)n1 | – | inactive: 31.5%
COCCCNc1nc2nonc2nc1N1CCN(C2CCCC2)CC1 | inconclusive: 10.4 µM [inhibitor, single point] | –
CCC(=O)N1CCc2cc(S(=O)(=O)CCC(=O)N3CCN(c4ccccc4)CC3)ccc21 | – | inactive: 9.32%
O=C(NCC1CCCO1)/C(=C/c1ccccc1F)NC(=O)c1ccccc1 (stereo not drawn) | inconclusive: 18.5 µM [inhibitor, single point] | –
COc1cccc(CN2CC(C(=O)N(C)CCCC3CCCC3)CCC2=O)c1 (stereo not drawn) | – | inactive: -14.6%
S=C1NC(C23CC4CC(CC(C4)C2)C3)=CC(c2ccc3c(c2)OCO3)N1 (stereo not drawn) | inconclusive: 11.7 µM [inhibitor, partial curve] | –
Clc1ccc(C2=NN(c3ccccc3)C(c3ccco3)C2)cc1 (stereo not drawn) | inconclusive: 11.7 µM [inhibitor, single point] | –
CC(C)(C)Cc1nnc(NC(=O)CSc2ccccc2)s1 | inconclusive: 10.4 µM [inhibitor, single point] | –
Nc1ccc(C23CC4CC(CC(O)(C4)C2)C3)cc1 | – | inactive: 34.6%
O=C(N/N=C/c1cccc2ccccc12)c1ccncc1 | inconclusive: 11.7 µM [inhibitor, single point] | –
CN(C)c1ccc(N/C=C/C(=O)C(F)(F)F)cc1 | active: 6.57 µM | –
COc1cc(C)c(CNCCc2c[nH]c3ccccc23)cc1C | – | inactive: 28.5%
CCn1c(C)nnc1SCC(=O)Nc1ccc(N2CCOCC2)cc1 | – | inactive: -21%
CCOC(=O)Cc1cnc(NC(=O)CSc2nc(N)cc(=O)[nH]2)s1 | inconclusive: 16.5 µM [inhibitor, single point] | –
CCC(NS(=O)(=O)c1cn(C)nc1C)c1ccccc1 (stereo not drawn) | inconclusive: 11.7 µM [inhibitor, single point] | –

Given as tab-separated lines: 6 of the compounds above
SMILES	Potency	activity change, negative = inhibition
Cn1cnc2c1c(=O)[nH]c(=O)n2Cc1ccccc1	inconclusive: 10.4 µM [inhibitor, single point]	–
C#CCOCCOCCOCCNc1nc(N2CCN(C(=O)Cn3cc(CCCCN)nn3)CC2)nc(N2CCN(C(=O)[C@H](CCCCN)n3cc(CCCC)nn3)CC2)n1	inconclusive: 4.15 µM [inhibitor, single point]	–
COc1ccc(CCNC(=O)C2CCN(S(=O)(=O)c3cccc4nonc34)CC2)cc1OC	active: 8.28 µM	–
CCc1nc2ccc(C(=O)NCCc3ccccc3OC)cc2nc1CC	inconclusive: 11.7 µM [inhibitor, single point]	–
Cc1cc(NC(=O)c2ccc(F)cc2F)n(-c2nc3ccccc3[nH]2)n1	–	inactive: 31.5%
COCCCNc1nc2nonc2nc1N1CCN(C2CCCC2)CC1	inconclusive: 10.4 µM [inhibitor, single point]	–
